# Laboratory results taken from PubChem BioAssay AID602346 (Broad Institute, 2012).
# Out of some 340,000 compounds screened, about 1,200 (0.35%) were called active. Inconclusive results, whose numbers are uncertain, are shown with a selection of clear calls. Cut-off read from the data, not from the text of the source: active = inhibition above about 50% (passing the limit was not always enough); inconclusive = no clear call, values can overlap the other calls; inactive = below about 31%.
# Assay: blockers of Vif multimerization in cells – imaging, HEK293T, single point, primary screen (AID 602346)
# Conditions: Vif self-association by quenched fluorescence, 24 h, at 7.49 µM, stronger effect = higher value
row,Compound,inhibition
1,CSc1ccccc1OCc1cc(C(=O)N2CCC(c3ccncc3)CC2)no1,inactive: -14.7%
2,CCOc1ccccc1NC(=O)c1cccc2ccccc12,inconclusive: 35.9%
3,NC(=NC1CCCCC1)c1ccc([N+](=O)[O-])cc1,inconclusive: 35.4%
4,COc1ccc(COc2cc(-c3cccc(OC)c3)nc3ccc(N)cc23)cc1,inconclusive: 37.5%
5,COC(=O)c1ccc(NCc2cc(O)ccc2O)cc1,active: 101%
6,CCOC(=O)c1cnc2c(-c3cccc(Br)c3)cnn2c1C,inactive: -18.1%
7,COc1ccccc1C1CCN(C(=S)Nc2ccc(Br)cc2)CC1,inconclusive: 31.5%
8,CN1C(=O)OC(C)(C)C1=O,inconclusive: 39.7%
9,COc1ccc(CCN2C(=O)c3[nH]nc(-c4ccccc4O)c3C2c2ccccc2)cc1OC (stereo unspecified),inactive: -4.92%
10,COc1ccc(NC(=O)C#Cc2ccccc2)cc1OC,inconclusive: 42.2%
11,O=c1/c(=C/c2ccccn2)sc2n1CN(c1ccccc1)CN=2,inactive: -4.29%
12,CC(C)CC(=O)Nc1ccc(-c2nnn(CC(=O)NCc3ccco3)n2)cc1,inconclusive: 33.5%
13,CCOc1ccc(Nc2nc3c(C)cccc3cc2C#N)cc1,active: 82.2%
14,COc1ccc(C(=O)c2ccccc2Cl)cc1OC,inconclusive: 26.4%
15,COCCNC(=O)c1ccc(NS(=O)(=O)c2ccc3[nH]c(=O)[nH]c3c2)cc1,inconclusive: 29%
16,CC1CCC(C(C)C)C(OP(=O)(c2ccccc2)C(O)c2ccncc2)C1 (stereo unspecified),inconclusive: 34.4%
17,CS(=O)(=O)c1nc(-c2ccccc2)cc(C(F)(F)F)n1,inconclusive: 24.6%
18,CCNC(=O)COC(=O)c1cc(C)n(-c2ccccc2)c1C,inconclusive: 26.1%
19,CCOC(=O)c1cc(-c2ccncc2)nc2c1c(C)nn2-c1ccccn1,inconclusive: 38%
20,Cc1ccc(C(=O)NCc2ccccc2)c(F)c1F,inconclusive: 29.6%
21,COc1ccc(CNC(=O)C2CCN(C(=O)N(C)C)CC2)c(OC)c1,inconclusive: 38.5%
22,Cc1ccccc1-c1nnc(-c2ccc(Br)cc2)o1,inactive: -1.83%
23,CCCCOc1ccc(C(=O)N2CCCC2C(=O)O)cc1 (stereo unspecified),inconclusive: 32.8%

row,Compound,inhibition
1,O=C1CC(c2ccccc2)CN1C(=O)c1ccccc1 (stereo unspecified),inconclusive: 40.4%
2,O=[N+]([O-])c1ccc(Sc2ccc(F)cc2)nc1,inconclusive: 25.2%
3,CC(C)(C)C(=O)N1CCN(c2ncccc2C(F)(F)F)CC1,inconclusive: 28.4%
4,OC(CNCc1ccccc1Cl)COc1ccc(F)cc1 (stereo unspecified),active: 65.1%
5,N#CCSc1ncccc1-c1nc2ccccc2[nH]1,inconclusive: 46.6%
6,Cc1cc(OC(=O)c2ccc(Cl)cc2Cl)c([N+](=O)[O-])c(=O)[nH]1,inactive: 8.56%
7,CCc1ccc2nc(N3CCN(C(=O)C(C)(C)C)CC3)sc2c1,inconclusive: 22.9%
8,O=C(COc1ccccc1)Nc1c2c(nn1-c1ccccc1)CS(=O)C2 (stereo unspecified),inactive: 4.45%
9,C#CCN(C[C@@H]1[C@@H](OC(=O)NCC2CCCCC2)[C@@H](OC(=O)NCC2CCCCC2)CN(C(=O)OC(C)C)N1C(=O)OC(C)C)S(=O)(=O)c1ccc(C)cc1,inactive: -1.62%
10,CC(c1ccccc1)n1cc(C(=O)NCc2ccncc2)nn1 (stereo unspecified),inconclusive: 27%
11,O=C(COc1nncc2ccccc12)NCCC1=CCCCC1,inconclusive: 45.7%
12,COc1ccc(NC(=O)c2noc3c2CCC3)cc1,inconclusive: 19.2%
13,COc1ccc(CC(=O)OCC(=O)Nc2ccc(N3CCOCC3)cc2)cc1,active: 80.7%
14,CC12CCC(=O)C=C1CCC1C2C(O)CC2(C)C1CCC2(O)C(=O)CO (stereo unspecified),active: 50.1%
15,O=C(CCC(=O)Nc1ccc(Br)cc1)N/N=C/c1ccccc1F,inconclusive: 21.8%
16,COc1ccc(-c2cnnc(N/N=C/c3ccc(O)cc3)n2)cc1,inactive: 38.4%
17,O=C(CCCN1C(=O)c2cccnc2C1=O)Nc1ccc(Br)cc1,active: 59.2%
18,COc1ccc(N2CC(C(=O)N[C@@H](C)C(=O)NCc3ccccc3OC)CC2=O)cc1 (stereo partly specified),inactive: -5.37%
19,Nc1nonc1-c1nc2ccccc2n1CC(=O)NC1CCCC1,active: 50.2%
20,CCOC(=O)Nc1oc2ccccc2c(=O)c1CN1CCOCC1,active: 53.7%
21,CCc1ccccc1N(CC(=O)NCc1ccco1)C(=O)CCC(=O)Nc1nccs1,inactive: -9.35%
22,Cc1c(Cl)cccc1NC(=O)CC(C(=O)O)C1CCCO1 (stereo unspecified),active: 98.1%
23,Cc1cccc(NC(=O)C2CCCN2C(=O)OCC(C)C)c1 (stereo unspecified),inconclusive: 30.4%

# Pulled by compound from the list above:
row,Compound,inhibition
8,CN1C(=O)OC(C)(C)C1=O,inconclusive: 39.7%
21,COc1ccc(CNC(=O)C2CCN(C(=O)N(C)C)CC2)c(OC)c1,inconclusive: 38.5%
17,CS(=O)(=O)c1nc(-c2ccccc2)cc(C(F)(F)F)n1,inconclusive: 24.6%
12,CC(C)CC(=O)Nc1ccc(-c2nnn(CC(=O)NCc3ccco3)n2)cc1,inconclusive: 33.5%
14,COc1ccc(C(=O)c2ccccc2Cl)cc1OC,inconclusive: 26.4%

# Later entries

row,Compound,inhibition
1,COc1ccc(-c2cn3ccccc3n2)cc1,inactive: 2.52%
2,C=CCn1c(O)c(C2=c3ccccc3=NC2=O)s/c1=N/c1nccs1,active: 88.3%
3,CN(C)S(=O)(=O)c1ccc(Cl)c(NC(=O)COC(=O)CCSc2ccccc2)c1,inactive: -0.514%
4,CCCCOC(=O)Nc1nnc(SCCOc2ccc(C)cc2)s1,inconclusive: 36.3%
5,COc1ccc(NC(=O)/C(=C/c2ccc3c(c2)OCO3)NC(C)=O)cc1,inactive: 2.33%
6,COc1cc(/C=C2\SC(=O)N(CC(=O)Nc3ccccc3F)C2=O)cc(Cl)c1O,inconclusive: 29.5%
7,COCCC(=O)N1CCC(Oc2ccc(C(=O)NCc3ncc(C)[nH]3)cc2)CC1,inconclusive: 37.3%
8,CCOC(=O)c1oc2cc(C)cc(C)c2c1C,inconclusive: 26.5%
9,O=C(OCC(=O)N1CCCCC1)c1c[nH]c(=O)[nH]c1=O,inconclusive: 20%
10,CCOc1ccccc1NC(=O)Cn1nnc(C(=O)NCc2cccs2)c1N,active: 62.1%
11,CCOc1ncccc1C(=O)Nc1ccc(-c2ccc3nnc(C)n3n2)cc1,inconclusive: 36.3%
12,CCN(C(=O)COC(=O)CCC(=O)c1cccs1)c1c(N)n(Cc2ccccc2)c(=O)[nH]c1=O,inactive: 6.67%
13,O=C1C[C@H](c2ccc(O)cc2)Oc2cc(O[C@@H]3O[C@H](CO)[C@@H](O)[C@H](O)[C@H]3O)cc(O[C@@H]3O[C@H](CO)[C@@H](O)[C@H](O)[C@H]3O)c21,inactive: -2.08%
14,CCCCN(C=O)c1c(CC)nc2c(OCCOc3ccccc3)cccn12,active: 58.4%
15,O=C(NCc1cccc(Br)c1)C1CC(c2ccc(C(F)(F)F)cc2)=NO1 (stereo unspecified),inconclusive: 46.5%
16,Cc1cnc(NC(=O)c2cc3c(C)nn(-c4ccccc4)c3s2)s1,active: 52.8%
17,Cc1nnc(SCC(=O)NC2CCCC2)n1CCc1ccccc1,inconclusive: 29.5%
18,Cc1cc(C(=O)NCC2COc3ccccc3O2)c2ccccc2n1 (stereo unspecified),inactive: 0.0195%
19,COc1ccc(NCc2nnc(-c3ccccc3)o2)cc1,inactive: 5.28%
20,CC(C)OCCCNc1ncnc2c1[nH]c1ccc(F)cc12,active: 65.5%
21,O=c1c(OC2OC(CO)C(O)C(O)C2OC2OC(CO)C(O)C(O)C2O)c(-c2ccc(O)cc2)oc2cc(O)cc(O)c12 (stereo unspecified),inactive: 9.09%
22,O=C(Nc1ccccc1O)c1ccccc1O,inactive: -21.6%
23,O=S(=O)(C/C(=C/CO)S(=O)(=O)c1ccccc1)c1ccccc1,active: 62.4%

# Copied from the list:
# Value of COc1ccc(C(=O)c2ccccc2Cl)cc1OC under inhibition: inconclusive: 26.4%
# Value of COCCNC(=O)c1ccc(NS(=O)(=O)c2ccc3[nH]c(=O)[nH]c3c2)cc1 under inhibition: inconclusive: 29%
# Value of Cc1cc(OC(=O)c2ccc(Cl)cc2Cl)c([N+](=O)[O-])c(=O)[nH]1 under inhibition: inactive: 8.56%

# The results go on:

row,Compound,inhibition
1,Fc1ccc(/C=N/N2CCN(Cc3ccccc3)CC2)cc1,inconclusive: 30.5%
2,Cc1cc(C)n2nc(C(=O)OCC(=O)NCc3ccccc3)nc2n1,inconclusive: 22.6%
3,COC(=O)C1CCN(C(c2cccs2)c2sc3nc(C)nn3c2O)CC1 (stereo unspecified),inconclusive: 34.2%
4,COc1ccc(C2CC(=O)N(C)c3ccccc3S2)cc1OC (stereo unspecified),inactive: -7.97%
5,COc1ccc(OC)c(CN2CCN(C(=O)CNC(=O)c3ccccc3F)CC2)c1,inconclusive: 40.2%
6,CCN(CC)C(c1ccc(C)cc1)c1nnnn1C1CCCCC1 (stereo unspecified),inconclusive: 39.5%
7,O=C(NCc1ccccc1)c1ccc(S(=O)(=O)N2CCCCCC2)cc1,active: 76.7%
8,O=C(CSc1nnnn1-c1ccccc1)Nc1ccc(Cl)cc1,inconclusive: 47.8%
9,COc1ccc(-c2nn(-c3ccccc3)cc2C(=O)n2nnc3ccccc32)cc1,inconclusive: 28.7%
10,COc1ccc(OC2C(=O)N(Cc3ccc(F)cc3)C2c2ccc(OC)c(OC)c2)cc1 (stereo unspecified),inconclusive: 35.6%
11,c1ccc(C2=Nn3c(nnc3-c3ccccn3)SC2)cc1,inactive: 1.33%
12,CC(C)N1CCC(N2CCN(C/C=C/c3ccccc3)CC2CCO)CC1 (stereo unspecified),inconclusive: 42.4%
13,O=C(COC(=O)/C=C/c1ccc(Br)o1)Nc1cccc(S(=O)(=O)N2CCOCC2)c1,active: 72.1%
14,COc1ccc(/C(N)=N/OC(=O)c2cccc([N+](=O)[O-])c2)cc1,inconclusive: 29.1%
15,COc1ccc(CCNC(=O)c2cnn3cccnc23)cc1OC,inconclusive: 44.8%
16,Cc1ccc(/C=C/c2onc(C)c2S(=O)(=O)N2CCC(C(=O)NC(C)(C)C)CC2)cc1,inconclusive: 44.3%
17,Cc1ccc([C@@H]2CC=C(C(=O)O)[C@H](c3ccc(Cl)cc3)N2S(=O)(=O)c2ccc(C)cc2)cc1,inactive: -9.9%
18,O=C(/C=C/c1ccco1)Nc1ccc(Oc2ccc(Cl)cc2)cc1,active: 62.8%
19,Cc1ccccc1CCNC(=O)Cn1ccc2cc(S(=O)(=O)N3CCCC3)ccc21,inactive: -4.27%
20,Cc1c(C)c2ccc(OCC(=O)N[C@@H](Cc3ccccc3)C(=O)O)cc2oc1=O,inconclusive: 16.9%
21,CCOc1ccc(NC(=O)N2CCC(NC(=O)C(Cc3ccc(OC)c(OC)c3)NC(C)=O)CC2)cc1 (stereo unspecified),inconclusive: 47.9%
22,CCCn1c(=O)c(C(=O)Nc2ncccc2O)c(O)c2ccccc21,active: 58.1%
